Laboratory results: PMC12413633
These are yes or no findings as the source states them, for the method shown. Binding seen in cells or lysates may run through a third protein. Some binding calls cover weakened binding; strength is not graded here. For some of these results: Where a sequence is shown, tags or fusion partners need not be part of it.

The chains behind the UniProt entries cited, without tags or fusion partners. Where a name states a change or a piece, a line headed by the entry shows the natural chain unless it says otherwise. A line that says so, or that is headed by a name, gives the form on record, which may keep a tag or linker.
UniProt O60282: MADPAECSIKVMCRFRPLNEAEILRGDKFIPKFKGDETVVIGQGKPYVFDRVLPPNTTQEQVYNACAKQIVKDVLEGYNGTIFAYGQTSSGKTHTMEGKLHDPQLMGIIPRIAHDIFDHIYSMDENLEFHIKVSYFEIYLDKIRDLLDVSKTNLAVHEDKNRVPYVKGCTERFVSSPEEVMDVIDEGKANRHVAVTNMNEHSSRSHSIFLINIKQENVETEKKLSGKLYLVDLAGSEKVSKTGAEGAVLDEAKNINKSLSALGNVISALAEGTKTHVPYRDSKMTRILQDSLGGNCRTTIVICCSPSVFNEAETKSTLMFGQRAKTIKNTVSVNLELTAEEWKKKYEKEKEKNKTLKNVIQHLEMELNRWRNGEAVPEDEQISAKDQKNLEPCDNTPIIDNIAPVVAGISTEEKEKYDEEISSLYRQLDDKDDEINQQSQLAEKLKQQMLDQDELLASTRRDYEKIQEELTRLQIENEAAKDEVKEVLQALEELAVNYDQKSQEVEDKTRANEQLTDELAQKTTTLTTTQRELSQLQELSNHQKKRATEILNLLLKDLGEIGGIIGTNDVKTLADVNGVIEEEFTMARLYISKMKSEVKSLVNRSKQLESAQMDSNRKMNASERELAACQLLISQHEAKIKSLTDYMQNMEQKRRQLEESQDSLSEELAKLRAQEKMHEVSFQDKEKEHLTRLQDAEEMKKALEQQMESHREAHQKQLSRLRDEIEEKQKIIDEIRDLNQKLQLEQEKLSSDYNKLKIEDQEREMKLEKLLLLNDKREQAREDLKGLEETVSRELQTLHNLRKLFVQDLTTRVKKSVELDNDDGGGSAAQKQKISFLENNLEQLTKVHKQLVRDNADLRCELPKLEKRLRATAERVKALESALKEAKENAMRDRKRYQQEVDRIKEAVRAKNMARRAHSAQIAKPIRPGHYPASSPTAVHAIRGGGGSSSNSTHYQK
human DDK-MAP2B S1782E (P11137-1, form named): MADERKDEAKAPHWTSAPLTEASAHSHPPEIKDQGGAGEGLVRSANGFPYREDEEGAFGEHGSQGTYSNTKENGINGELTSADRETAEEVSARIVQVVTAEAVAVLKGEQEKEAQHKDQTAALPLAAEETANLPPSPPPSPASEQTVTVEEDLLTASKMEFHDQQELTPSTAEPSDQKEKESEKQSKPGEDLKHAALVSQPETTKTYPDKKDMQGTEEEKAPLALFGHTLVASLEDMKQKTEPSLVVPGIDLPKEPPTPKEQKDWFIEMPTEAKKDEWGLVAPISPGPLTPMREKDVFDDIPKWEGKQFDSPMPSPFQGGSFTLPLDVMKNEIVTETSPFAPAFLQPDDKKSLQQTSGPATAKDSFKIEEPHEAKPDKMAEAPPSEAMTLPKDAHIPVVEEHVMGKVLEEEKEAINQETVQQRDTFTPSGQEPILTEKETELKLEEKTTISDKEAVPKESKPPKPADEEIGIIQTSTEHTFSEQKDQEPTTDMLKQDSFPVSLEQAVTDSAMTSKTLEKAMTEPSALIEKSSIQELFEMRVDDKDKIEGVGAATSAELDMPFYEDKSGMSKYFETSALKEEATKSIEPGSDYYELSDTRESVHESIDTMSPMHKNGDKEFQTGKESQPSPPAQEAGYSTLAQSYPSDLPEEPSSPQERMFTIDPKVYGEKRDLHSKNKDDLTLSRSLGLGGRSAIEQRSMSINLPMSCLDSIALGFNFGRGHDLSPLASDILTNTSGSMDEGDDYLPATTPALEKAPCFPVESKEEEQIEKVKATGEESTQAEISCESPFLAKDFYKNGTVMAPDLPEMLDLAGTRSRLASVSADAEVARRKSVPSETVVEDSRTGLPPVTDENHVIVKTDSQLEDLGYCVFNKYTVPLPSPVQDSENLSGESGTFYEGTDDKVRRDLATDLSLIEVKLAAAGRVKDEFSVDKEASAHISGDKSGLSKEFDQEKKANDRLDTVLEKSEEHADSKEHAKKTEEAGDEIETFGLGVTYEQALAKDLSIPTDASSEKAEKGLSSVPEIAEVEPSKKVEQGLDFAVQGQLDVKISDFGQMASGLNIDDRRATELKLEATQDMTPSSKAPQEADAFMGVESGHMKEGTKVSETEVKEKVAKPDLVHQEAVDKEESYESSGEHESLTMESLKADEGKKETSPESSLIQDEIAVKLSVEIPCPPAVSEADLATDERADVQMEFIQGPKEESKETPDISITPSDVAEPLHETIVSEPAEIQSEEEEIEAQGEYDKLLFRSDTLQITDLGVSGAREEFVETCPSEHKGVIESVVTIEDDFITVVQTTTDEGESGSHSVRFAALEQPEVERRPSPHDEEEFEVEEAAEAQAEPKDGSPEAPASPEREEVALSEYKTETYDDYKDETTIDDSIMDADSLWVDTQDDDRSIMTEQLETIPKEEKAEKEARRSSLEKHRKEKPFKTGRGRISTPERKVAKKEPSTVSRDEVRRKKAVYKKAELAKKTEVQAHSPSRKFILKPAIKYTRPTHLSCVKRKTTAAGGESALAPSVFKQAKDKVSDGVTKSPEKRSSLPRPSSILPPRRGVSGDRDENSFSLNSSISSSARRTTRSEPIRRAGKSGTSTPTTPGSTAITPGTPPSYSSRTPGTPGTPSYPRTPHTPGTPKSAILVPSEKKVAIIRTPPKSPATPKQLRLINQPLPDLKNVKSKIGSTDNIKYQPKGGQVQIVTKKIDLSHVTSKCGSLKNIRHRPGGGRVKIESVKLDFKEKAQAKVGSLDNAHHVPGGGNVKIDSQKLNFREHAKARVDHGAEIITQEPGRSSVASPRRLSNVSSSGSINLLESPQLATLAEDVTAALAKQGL

Key:
Assay in all cases: co-IP; HEK 293 cells transfected with MAP2B WT or S1782E and a Myc-tagged interactor; lysate in 20 mM Tris-HCl pH 7.5, 150 mM NaCl, 1 % Triton X-100; Myc-antibody magnetic beads; western blot for MAP2 (HM-2) and Myc, densitometry
[1] = target: T1, human KLHL8-Myc-DDK protein (human) (UniProt Q9P2G9)
T1 sequence: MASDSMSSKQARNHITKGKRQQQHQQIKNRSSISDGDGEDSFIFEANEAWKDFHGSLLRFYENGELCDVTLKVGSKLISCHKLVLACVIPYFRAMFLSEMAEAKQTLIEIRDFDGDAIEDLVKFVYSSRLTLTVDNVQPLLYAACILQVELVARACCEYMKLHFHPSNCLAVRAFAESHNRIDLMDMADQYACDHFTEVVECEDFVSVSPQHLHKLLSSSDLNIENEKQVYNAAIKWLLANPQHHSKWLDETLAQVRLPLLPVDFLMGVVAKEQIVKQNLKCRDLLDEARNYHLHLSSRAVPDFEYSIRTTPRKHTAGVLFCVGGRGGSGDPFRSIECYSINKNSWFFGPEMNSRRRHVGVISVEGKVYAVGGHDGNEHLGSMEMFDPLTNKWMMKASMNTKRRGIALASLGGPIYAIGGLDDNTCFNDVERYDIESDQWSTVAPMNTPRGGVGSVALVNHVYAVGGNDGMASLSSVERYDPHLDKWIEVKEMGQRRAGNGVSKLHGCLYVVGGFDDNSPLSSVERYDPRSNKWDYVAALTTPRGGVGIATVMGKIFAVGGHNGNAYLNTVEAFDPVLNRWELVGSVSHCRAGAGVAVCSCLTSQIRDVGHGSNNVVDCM

[2] = target: human KIF5C-Myc-DDK protein (human) (UniProt O60282)
[3] = target: T2, human PPM1L-Myc protein (human) (UniProt Q5SGD2)
T2 sequence: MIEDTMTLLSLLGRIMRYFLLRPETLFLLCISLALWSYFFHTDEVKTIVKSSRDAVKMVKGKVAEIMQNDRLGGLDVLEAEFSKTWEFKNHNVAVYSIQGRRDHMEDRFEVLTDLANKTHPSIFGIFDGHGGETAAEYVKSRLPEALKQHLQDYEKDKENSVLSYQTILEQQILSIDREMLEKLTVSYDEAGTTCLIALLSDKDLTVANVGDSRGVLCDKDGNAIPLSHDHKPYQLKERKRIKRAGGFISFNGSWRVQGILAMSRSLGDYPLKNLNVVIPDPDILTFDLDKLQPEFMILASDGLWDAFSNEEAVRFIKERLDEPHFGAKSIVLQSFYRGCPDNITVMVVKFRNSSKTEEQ

Row | Substance | binding [1] | binding [2] | binding [3]
1 | human DDK-MAP2B S1782E (from UniProt P11137-1 1-1827) | binds | binds | binds
2 | human wild type DDK-MAP2B (from UniProt P11137-1 1-1827) |  | binds | 
